Source: publication PMC3214027, “Honey Bee Dopamine and Octopamine Receptors Linked to Intracellular Calcium Signaling Have a Close Phylogenetic and Pharmacological Relationship” (PLoS ONE, 2011)

By UniProt entry, the sequences of proteins in these tests, tags left out. Residues count along the entry.
UniProt Q9NG02, 1-399: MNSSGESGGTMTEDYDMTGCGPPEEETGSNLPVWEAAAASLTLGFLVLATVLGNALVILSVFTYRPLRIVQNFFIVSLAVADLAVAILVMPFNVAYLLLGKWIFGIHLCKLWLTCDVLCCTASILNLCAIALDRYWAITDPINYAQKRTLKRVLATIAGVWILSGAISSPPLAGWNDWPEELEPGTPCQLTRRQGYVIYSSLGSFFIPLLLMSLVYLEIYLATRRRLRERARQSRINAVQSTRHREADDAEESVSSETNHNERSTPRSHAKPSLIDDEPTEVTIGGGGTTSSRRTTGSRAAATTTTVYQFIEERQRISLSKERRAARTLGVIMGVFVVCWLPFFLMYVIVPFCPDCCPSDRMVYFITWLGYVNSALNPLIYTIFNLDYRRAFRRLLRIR

Biological target: T1, AmTYR1 (Apis mellifera, UniProt Q9NG02)
T1 construct: gene TyrR
Conditions: read-out: RECEPTOR / AmTYR1; antagonist; against 1 µM agonist (not named); 100 nM forskolin; 3 h treatment

CN1CCN2c3ccccc3Cc3ccccc3C2C1 (stereo not shown) [mianserin]
IC50: 73 µM
